Data published in PubChem BioAssay AID330 (DTP/NCI, 2004).
The list shows only some results of the screen, not a fair sample: it is rich in T/C values a quarter to a half above the control, in often repeated tests (any T/C) and in doses without a T/C. Other doses and runs of a compound stand elsewhere. T/C is the treated group as % of the vehicle group. Some doses have a count of surviving animals in place of a T/C: the source files T/C as zero there, which appears to mark a toxic dose or a test without result, not a measured value. Some survivor counts are full or nearly so, which does not show that the dose was tolerated: survival well below the control is almost never listed, so the zero probably covers shortened survival too. Counts of survivors are from the toxicity check (mostly the fifth day) where no day follows; animals may have died later. Schedules are NCI's codes, taken here to give the interval after Q, in days (D) or hours (H), and the number of doses after X. For survival time, this PubChem deposit counts one and a half times the control or more as active, and values a quarter to a half above the control carry no call in these data; other NCI protocols may use other cut-offs. Some doses were run more than once; their values stand side by side, smallest first.

Tested on: P388 leukemia ip, CD2F1 mice, survival T/C
Experiment: NCI In Vivo Anticancer Drug Screen. Data for tumor model P388 Leukemia (intraperitoneal) in CD2F1 (CDF1) mice
Details: T/C endpoint: median survival time, higher T/C = longer survival
[1] = dose: 100.0 mg/kg/injection, schedule: Q01DX009 (ip), vehicle: Klucel (hydroxypropylcellulose) (HPC)
[2] = dose: 50.0 mg/kg/injection, schedule: Q01DX005 (ip), vehicle: saline with Tween-80
[3] = dose: 100.0 mg/kg/injection, schedule: Q01DX005 (ip), vehicle: saline with Tween-80
[4] = dose: 200.0 mg/kg/injection, schedule: Q01DX005 (ip), vehicle: saline with Tween-80
[5] = dose: 50.0 mg/kg/injection, schedule: Q01DX005 (ip), vehicle: Klucel (hydroxypropylcellulose) (HPC)
[6] = dose: 100.0 mg/kg/injection, schedule: Q01DX005 (ip), vehicle: Klucel (hydroxypropylcellulose) (HPC)
[7] = dose: 200.0 mg/kg/injection, schedule: Q01DX005 (ip), vehicle: Klucel (hydroxypropylcellulose) (HPC)
[8] = dose: 6.0 mg/kg/injection, schedule: Q01DX009 (ip), vehicle: Klucel (hydroxypropylcellulose) (HPC)
[9] = dose: 12.0 mg/kg/injection, schedule: Q01DX009 (ip), vehicle: Klucel (hydroxypropylcellulose) (HPC)
[10] = dose: 100.0 mg/kg/injection, schedule: Q01DX009 (ip), vehicle: saline
[11] = dose: 12.5 mg/kg/injection, schedule: Q01DX009 (ip), vehicle: saline with Tween-80

Question: `C/C=C/C=C(/C=O)[C@@H](O)C(C)=O` was tested. Which T/C (dose: 4.0 mg/kg/injection, schedule: Q01DX009 (ip), vehicle: saline + alcohol) did it give?
Answer: 134 % of control

Question: And the T/C (dose: 8.0 mg/kg/injection, schedule: Q01DX009 (ip), vehicle: saline + alcohol)?
Answer: 131 % of control

Question: And the survivor count (dose: 16.0 mg/kg/injection, schedule: Q01DX009 (ip), vehicle: saline + alcohol)?
Answer: 0 of 6

Question: And the survivor count (dose: 32.0 mg/kg/injection, schedule: Q01DX009 (ip), vehicle: saline + alcohol)?
Answer: 0 of 6

Question: Which survivor count [1] does the source give for `O=C1CSC(COc2ccc(Cl)cc2Cl)O1` (stereo unspecified) here?
Answer: 1 of 6

Question: For `Clc1cccc(/C=C/c2ccnnc2)c1`, which survivor count (dose: 50.0 mg/kg/injection, schedule: Q01DX009 (ip), vehicle: saline) is on record?
Answer: 6 of 6

Question: How did the survivor count (dose: 12.5 mg/kg/injection, schedule: Q01DX005 (ip), vehicle: saline with Tween-80) turn out when `CC(=O)NCCc1nc(-c2nc(C(=O)NCCC[S+](C)C)cs2)cs1` was run?
Answer: 6 of 6

Question: What about the survivor count [2] of the same molecule?
Answer: 1 of 6

Question: And the survivor count [3]?
Answer: 0 of 6

Question: What about the survivor count [4] of the same molecule?
Answer: 0 of 6

Question: For `CN(c1ccc(C2=NCCN2)cc1)S(=O)(=O)c1ccc(Oc2ccc(S(=O)(=O)N(C)c3ccc(C4=NCCN4)cc3)cc2)cc1`, which survivor count [5] is on record?
Answer: 0 of 5

Question: And the survivor count [6]?
Answer: 0 of 5

Question: What about the survivor count [7] of the same molecule?
Answer: 0 of 5

Question: How did the T/C (dose: 3.0 mg/kg/injection, schedule: Q01DX009 (ip), vehicle: Klucel (hydroxypropylcellulose) (HPC)) turn out when `C=C1C(=O)OC2/C=C(/C)C3OC3/C=C(/C(=O)OC)C(OC(C)=O)C(OC(=O)C3(C)OC3C)C12` (stereo unspecified) was run?
Answer: 127 and 132 % of control

Question: And the T/C [8]?
Answer: 131 and 133 % of control

Question: What about the T/C [9] of the same molecule?
Answer: 131 % of control

Question: What about the survivor count (dose: 24.0 mg/kg/injection, schedule: Q01DX009 (ip), vehicle: Klucel (hydroxypropylcellulose) (HPC)) of the same molecule?
Answer: 5 of 6

Question: With `ClC(Cl)(Cl)Sn1cccn1` as the molecule, how does the survivor count (dose: 200.0 mg/kg/injection, schedule: Q01DX009 (ip), vehicle: saline with Tween-80) read?
Answer: 0 of 6

Question: Which results are given for `c1cc[c]([Pb]([S]c2nc3ccccc3[nH]2)([c]2ccccc2)[c]2ccccc2)cc1`?
Answer: survivor count [8]: 5 of 6; survivor count [9]: 0 of 6

Question: `CN1C(=O)NC(c2ccc(Cl)cc2)(c2ccc(Cl)cc2)C1=O` was tested. Which T/C (dose: 100.0 mg/kg/injection, schedule: Q04DX003 (ip), vehicle: other) did it give?
Answer: 133 % of control

Question: And the T/C (dose: 200.0 mg/kg/injection, schedule: Q04DX003 (ip), vehicle: other)?
Answer: 129 % of control

Question: What about the survivor count (dose: 400.0 mg/kg/injection, schedule: Q04DX003 (ip), vehicle: other) of the same molecule?
Answer: 3 of 6

Question: For `O[C@]12CC=CC[C@]1(O)CC(N1CCCCC1)C2`, which survivor count (dose: 100.0 mg/kg/injection, schedule: Q01DX009 (ip), vehicle: saline with Tween-80) is on record?
Answer: 6 of 6

Question: How did the survivor count [10] turn out when `NCC(=O)c1ccc(O)c(O)c1` was run?
Answer: 2 of 6

Question: What about the survivor count (dose: 200.0 mg/kg/injection, schedule: Q04DX003 (ip), vehicle: saline with Tween-80) of the same molecule?
Answer: 4 of 6

Question: What about the survivor count (dose: 400.0 mg/kg/injection, schedule: Q04DX003 (ip), vehicle: saline with Tween-80) of the same molecule?
Answer: 3 of 6

Question: How did the survivor count (dose: 400.0 mg/kg/injection, schedule: Q04DX002 (ip), vehicle: saline) turn out when `COc1c2occc2c(NC(=O)C(F)(F)F)c2ccc(=O)oc12` was run?
Answer: 1 of 6

Question: `C/C=C(\C)c1cc(=O)c2c(C)cc3c(c2o1)C(=O)c1c(O)c(C2CC(C)(N(C)C)C(O)C(C)O2)cc(C2CC(N(C)C)C(O)C(C)O2)c1C3=O` (stereo unspecified) was tested. Which T/C (dose: 0.15 mg/kg/injection, schedule: Q01DX009 (ip), vehicle: saline) did it give?
Answer: 144 % of control

Question: And the T/C (dose: 0.5 mg/kg/injection, schedule: Q01DX009 (ip), vehicle: Klucel (hydroxypropylcellulose) (HPC))?
Answer: 133 % of control

Question: What about the survivor count (dose: 0.62 mg/kg/injection, schedule: Q01DX009 (ip), vehicle: saline) of the same molecule?
Answer: 5 of 6

Question: And the T/C (dose: 1.0 mg/kg/injection, schedule: Q01DX009 (ip), vehicle: Klucel (hydroxypropylcellulose) (HPC))?
Answer: 136 % of control

Question: What about the T/C (dose: 1.25 mg/kg/injection, schedule: Q01DX009 (ip), vehicle: saline) of the same molecule?
Answer: 144 % of control

Question: And the survivor count (dose: 2.5 mg/kg/injection, schedule: Q01DX009 (ip), vehicle: saline)?
Answer: 6 of 6

Question: And the T/C (dose: 3.13 mg/kg/injection, schedule: Q01DX009 (ip), vehicle: saline with Tween-80)?
Answer: 136 % of control

Question: What about the T/C (dose: 4.0 mg/kg/injection, schedule: Q01DX009 (ip), vehicle: Klucel (hydroxypropylcellulose) (HPC)) of the same molecule?
Answer: 133 % of control

Question: What about the survivor count (dose: 4.0 mg/kg/injection, schedule: Q01DX009 (ip), vehicle: saline) of the same molecule?
Answer: 6 of 6

Question: What about the survivor count [11] of the same molecule?
Answer: 5 of 6

Question: With `O=C(O)CN(CCN(CC(=O)O)CC(=O)O)CCN(CC(=O)O)CC(=O)O` as the molecule, how does the survivor count (dose: 400.0 mg/kg/injection, schedule: Q01DX009 (ip), vehicle: Klucel (hydroxypropylcellulose) (HPC)) read?
Answer: 0 of 6

Question: Which survivor count (dose: 400.0 mg/kg/injection, schedule: Q04DX003 (ip), vehicle: Klucel (hydroxypropylcellulose) (HPC)) does the source give for `COc1ccc(-n2c(SC)nccc2=O)cc1` here?
Answer: 6 of 6

Question: Which T/C (dose: 0.78 mg/kg/injection, schedule: Q01DX005 (ip), vehicle: saline) does the source give for `[Cl][Sn]([O][Sn]([Cl])([c]1ccccc1)[CH]1CCCCC1)([c]1ccccc1)[CH]1CCCCC1` (stereo unspecified) here?
Answer: 134 % of control

Question: What about the T/C (dose: 1.56 mg/kg/injection, schedule: Q01DX005 (ip), vehicle: saline, evaluated on day 20) of the same molecule?
Answer: 137 % of control

Question: What about the T/C (dose: 1.56 mg/kg/injection, schedule: Q01DX005 (ip), vehicle: saline, evaluated on day 30) of the same molecule?
Answer: 136 % of control

Question: And the survivor count (dose: 3.12 mg/kg/injection, schedule: Q01DX005 (ip), vehicle: saline)?
Answer: 2 of 6

Question: And the survivor count (dose: 6.25 mg/kg/injection, schedule: Q01DX005 (ip), vehicle: saline)?
Answer: 0 of 6

Question: And the survivor count (dose: 12.5 mg/kg/injection, schedule: Q01DX005 (ip), vehicle: saline)?
Answer: 0 of 6

Question: And the survivor count (dose: 25.0 mg/kg/injection, schedule: Q01DX005 (ip), vehicle: saline)?
Answer: 0 of 6

Question: And the survivor count [5]?
Answer: 0 of 6

Question: And the survivor count [6]?
Answer: 0 of 6

Question: And the survivor count [7]?
Answer: 0 of 6

Question: How did the survivor count [2] turn out when `Nc1ccc(N=Nc2ccc3cc4ccc(N=Nc5ccc(N)nc5N)cc4nc3c2)c(N)n1` was run?
Answer: 3 of 6

Question: Which results are given for `[Cu+2].[NH-]C(=O)NC([NH-])=O.[NH-]C(=O)NC([NH-])=O`?
Answer: survivor count (dose: 25.0 mg/kg/injection, schedule: Q01DX005 (ip), vehicle: saline with Tween-80): 0 of 5; survivor count [2]: 0 of 5; survivor count [3]: 0 of 5; survivor count [4]: 0 of 5

Question: `O=C(c1ccncc1)N(CO)N(Cn1c(=O)sc2ccccc21)Cn1c(=O)sc2ccccc21` was tested. Which survivor count (dose: 50.0 mg/kg/injection, schedule: Q01DX009 (ip), vehicle: Klucel (hydroxypropylcellulose) (HPC)) did it give?
Answer: 6 of 6

Question: What about the survivor count [1] of the same molecule?
Answer: 6 of 6

Question: What about the survivor count (dose: 200.0 mg/kg/injection, schedule: Q01DX009 (ip), vehicle: Klucel (hydroxypropylcellulose) (HPC)) of the same molecule?
Answer: 6 of 6

Question: With `CC[OH+]CC[OH+]CC[OH+]C1CCCC2CCC[N-]C21.[Cl][Cu][Cl]` (stereo unspecified) as the molecule, how does the survivor count (dose: 25.0 mg/kg/injection, schedule: Q01DX005 (ip), vehicle: Klucel (hydroxypropylcellulose) (HPC)) read?
Answer: 1 of 6

Question: What about the survivor count [5] of the same molecule?
Answer: 0 of 6

Question: What about the survivor count [6] of the same molecule?
Answer: 0 of 6

Question: What about the survivor count [7] of the same molecule?
Answer: 0 of 6

Question: What does the source list for `Cc1cc2c3c([nH]c2cc1[N+](=O)[O-])CCCC3=O`?
Answer: survivor count [5]: 5 of 5; survivor count [6]: 5 of 5

Question: `CCN(CC)Cc1cc(C(=O)CC(c2ccccc2)S(=O)(=O)c2ccc(C)cc2)ccc1O` (stereo unspecified) was tested. Which survivor count [11] did it give?
Answer: 6 of 6

Question: What about the survivor count (dose: 25.0 mg/kg/injection, schedule: Q01DX009 (ip), vehicle: saline with Tween-80) of the same molecule?
Answer: 5 of 6

Question: What about the survivor count (dose: 50.0 mg/kg/injection, schedule: Q01DX009 (ip), vehicle: saline with Tween-80) of the same molecule?
Answer: 6 of 6

Question: And the survivor count [10]?
Answer: 3 of 6

Question: And the survivor count (dose: 200.0 mg/kg/injection, schedule: Q01DX009 (ip), vehicle: saline)?
Answer: 3 of 6

Question: With `C/C=C/C=C1\C=Cc2c(C(=O)OC)coc(=O)c21` as the molecule, how does the survivor count (dose: 156.0 mg/kg/injection, schedule: Q01DX005 (ip), vehicle: Klucel (hydroxypropylcellulose) (HPC)) read?
Answer: 4 of 6

Question: How did the survivor count (dose: 200.0 mg/kg/injection, schedule: Q01DX005 (ip), vehicle: DMSO) turn out when `COC(=O)c1ccccc1NC(=O)N1CC1` was run?
Answer: 5 of 6
